# Results as given in article PMC10656286.
# The chains behind the UniProt entries cited, without tags or fusion partners. Where a name states a change or a piece, a line headed by the entry shows the natural chain unless it says otherwise.
# UniProt Q96CT2: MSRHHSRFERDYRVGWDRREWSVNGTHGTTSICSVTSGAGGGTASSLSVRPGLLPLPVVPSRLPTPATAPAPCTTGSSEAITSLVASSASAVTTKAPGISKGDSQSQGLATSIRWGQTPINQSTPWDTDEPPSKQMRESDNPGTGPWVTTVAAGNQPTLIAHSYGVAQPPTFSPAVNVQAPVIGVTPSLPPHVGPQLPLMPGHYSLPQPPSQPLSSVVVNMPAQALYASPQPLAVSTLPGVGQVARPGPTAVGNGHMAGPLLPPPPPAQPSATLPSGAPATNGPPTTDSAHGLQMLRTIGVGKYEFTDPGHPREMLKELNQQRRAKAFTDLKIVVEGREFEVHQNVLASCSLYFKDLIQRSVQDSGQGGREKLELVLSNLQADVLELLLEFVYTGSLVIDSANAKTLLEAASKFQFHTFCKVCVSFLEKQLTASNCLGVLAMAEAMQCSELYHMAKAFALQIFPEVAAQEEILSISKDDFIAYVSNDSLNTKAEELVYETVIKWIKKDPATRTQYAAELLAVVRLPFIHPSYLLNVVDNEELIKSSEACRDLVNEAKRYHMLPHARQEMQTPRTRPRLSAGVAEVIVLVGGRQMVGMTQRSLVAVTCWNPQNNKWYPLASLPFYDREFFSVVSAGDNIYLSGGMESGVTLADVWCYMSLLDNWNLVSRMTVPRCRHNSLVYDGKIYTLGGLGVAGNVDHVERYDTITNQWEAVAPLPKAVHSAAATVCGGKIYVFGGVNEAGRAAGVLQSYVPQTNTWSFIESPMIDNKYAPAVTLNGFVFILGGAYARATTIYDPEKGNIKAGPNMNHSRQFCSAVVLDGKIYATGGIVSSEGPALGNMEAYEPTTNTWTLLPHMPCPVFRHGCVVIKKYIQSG
# UniProt O00571: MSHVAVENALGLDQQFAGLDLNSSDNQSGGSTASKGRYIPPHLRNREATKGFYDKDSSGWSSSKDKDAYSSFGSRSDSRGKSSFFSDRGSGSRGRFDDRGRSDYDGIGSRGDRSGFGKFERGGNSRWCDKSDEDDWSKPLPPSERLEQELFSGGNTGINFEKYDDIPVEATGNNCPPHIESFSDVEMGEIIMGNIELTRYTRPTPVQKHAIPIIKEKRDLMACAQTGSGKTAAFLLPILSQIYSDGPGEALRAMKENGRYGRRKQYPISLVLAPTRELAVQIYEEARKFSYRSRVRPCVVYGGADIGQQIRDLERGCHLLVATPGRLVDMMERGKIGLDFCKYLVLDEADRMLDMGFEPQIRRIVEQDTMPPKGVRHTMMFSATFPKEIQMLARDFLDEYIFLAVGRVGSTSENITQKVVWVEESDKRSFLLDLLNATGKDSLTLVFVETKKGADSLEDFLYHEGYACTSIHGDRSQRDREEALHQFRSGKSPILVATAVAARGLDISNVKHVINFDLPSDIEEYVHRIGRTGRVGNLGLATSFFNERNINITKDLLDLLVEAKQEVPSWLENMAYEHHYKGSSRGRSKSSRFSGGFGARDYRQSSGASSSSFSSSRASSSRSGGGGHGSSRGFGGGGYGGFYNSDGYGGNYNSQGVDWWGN
# These are yes or no findings as the source states them, for the method shown. In cells and extracts the contact can be indirect. Binding can be weak; no strength is given.
# Target: Flag-KLHL29-ΔBTB (UniProt Q96CT2)
# Assay: co-IP; HEK293T cells transfected with tagged plasmids; whole-cell lysates immunoprecipitated with anti-tag antibody (anti-Flag or anti-Myc), western blotting
substance,measurement,value
Myc-DDX3X (from UniProt O00571 1-662),binding,binds
